# Reference: PubChem BioAssay AID504744 (Drosophila RNAi Screening Center, 2011)
# Purpose: 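Find genes whose loss alters insulin-driven dAkt phosphorylation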 (primary screen)
# Cell system: Drosophila Kc167 cells
# Reagents: long dsRNA against Drosophila genes, 250 ng dsRNA per well of a 384-well plate
# Duration: 3 days of knock-down, then overnight serum-free starvation before stimulation
# Treatment: bovine insulin at 387 nM for 10 minutes after 12 h without serum
# Measured: 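Per-well phospho-dAkt level from an in-cell fluorescent antibody stain, divided by a DNA-dye signal; log2 residuals turned into z-scores that take cell number into account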
# Active means: 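Hit in the insulin screen when the two-replicate mean z-score is more extreme than plus or minus 2.5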
# The deposit covers about 23,000 reagents; shown is a random part of those with a known target gene and a result. In the full data, 98 (0.43%) were called active. 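Only hit calls are given; the phospho-dAkt signals, z-scores and hit direction were not deposited.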 The numbers tell different reagents against one gene apart. Names joined by + are all predicted targets of the reagent.
Target gene,reagent no.,call
shi (GeneID 45928),1,inactive
CtsK2 (GeneID 36973),1,inactive
CG11168 (GeneID 42981),1,inactive
agt (GeneID 40816),1,inactive
bbc (GeneID 36496),1,inactive
bbc (GeneID 36496),2,inactive
wde (GeneID 36133),1,inactive
CG2217 + CG42740,1,inactive
CG10286 (GeneID 40786),1,inactive
CG3494 (GeneID 37903),1,inactive
eloF (GeneID 41211),1,inactive
CG33673 (GeneID 3772423),1,inactive
Cyp4s3 (GeneID 32444),1,inactive
Cyp4s3 (GeneID 32444),2,inactive
N (GeneID 31293),1,inactive
Cdc37 (GeneID 38232),1,inactive
DCAF12 (GeneID 41460),1,inactive
CG9426 (GeneID 34719),1,inactive
osy (GeneID 43186),1,inactive
osy (GeneID 43186),2,inactive
osy (GeneID 43186),3,inactive
Reg-2 (GeneID 38075),1,inactive
CG1344 (GeneID 35500),1,inactive
Orcokinin (GeneID 37806),1,inactive
CG5139 (GeneID 33309),1,inactive
CG32772 (GeneID 31420),1,inactive
CG32772 (GeneID 31420),2,inactive
CG32772 (GeneID 31420),3,inactive
ICA69 (GeneID 40331),1,inactive
gol (GeneID 38006),1,inactive
CG31959 (retired record) (GeneID 326180),1,inactive
Dnaaf3 (GeneID 37125),1,inactive
stum (GeneID 37473),1,inactive
stum (GeneID 37473),2,inactive
Pgm2b (GeneID 36649),1,inactive
iPLA2-VIA (GeneID 39160),1,inactive
Osi5 (GeneID 40759),1,inactive
ppk3 (GeneID 246504),1,inactive
shn (GeneID 36171),1,inactive
shn (GeneID 36171),2,inactive
Dhc64C (GeneID 38580),1,inactive
lsn (GeneID 42572),1,inactive
CG8141 (GeneID 41622),1,inactive
CG15536 (GeneID 43610),1,inactive
CG15536 (GeneID 43610),2,inactive
l(3)72Dp (GeneID 317887),1,inactive
DENR (GeneID 32679),1,inactive
Ret (GeneID 43875),1,inactive
Ret (GeneID 43875),2,inactive
CG13891 (GeneID 38066),1,inactive
CG8360 (GeneID 34122),1,inactive
CG12159 (GeneID 35741),1,inactive
dbe (GeneID 33269),1,inactive
CheB93b (GeneID 318736),1,inactive
CG7222 (GeneID 36138),1,inactive
Gss1 + Gss2,1,inactive
Gss1 + Gss2,2,inactive
ry (GeneID 41605),1,inactive
CG17841 (GeneID 31965),1,inactive
CG3420 (GeneID 35585),1,inactive
CG5568 (GeneID 38658),1,inactive
CG5568 (GeneID 38658),2,inactive
CG17002 (GeneID 35610),1,inactive
BCAS2 (GeneID 43348),1,inactive

A run of entries of the results above:
Target gene,reagent no.,call
CG1344 (GeneID 35500),1,inactive
Orcokinin (GeneID 37806),1,inactive
CG5139 (GeneID 33309),1,inactive
CG32772 (GeneID 31420),1,inactive
CG32772 (GeneID 31420),2,inactive
